# Test results reported in the supplement of paper PMC3334620.
# Whole data set: some 33,000 sequences, median “E-score (-0.5 to 0.5)” near -0.015, cut for the highest 2% near 0.3. This is one part of the list.
# Target: T1, Abf1 (UniProt P14164)
# T1 sequence: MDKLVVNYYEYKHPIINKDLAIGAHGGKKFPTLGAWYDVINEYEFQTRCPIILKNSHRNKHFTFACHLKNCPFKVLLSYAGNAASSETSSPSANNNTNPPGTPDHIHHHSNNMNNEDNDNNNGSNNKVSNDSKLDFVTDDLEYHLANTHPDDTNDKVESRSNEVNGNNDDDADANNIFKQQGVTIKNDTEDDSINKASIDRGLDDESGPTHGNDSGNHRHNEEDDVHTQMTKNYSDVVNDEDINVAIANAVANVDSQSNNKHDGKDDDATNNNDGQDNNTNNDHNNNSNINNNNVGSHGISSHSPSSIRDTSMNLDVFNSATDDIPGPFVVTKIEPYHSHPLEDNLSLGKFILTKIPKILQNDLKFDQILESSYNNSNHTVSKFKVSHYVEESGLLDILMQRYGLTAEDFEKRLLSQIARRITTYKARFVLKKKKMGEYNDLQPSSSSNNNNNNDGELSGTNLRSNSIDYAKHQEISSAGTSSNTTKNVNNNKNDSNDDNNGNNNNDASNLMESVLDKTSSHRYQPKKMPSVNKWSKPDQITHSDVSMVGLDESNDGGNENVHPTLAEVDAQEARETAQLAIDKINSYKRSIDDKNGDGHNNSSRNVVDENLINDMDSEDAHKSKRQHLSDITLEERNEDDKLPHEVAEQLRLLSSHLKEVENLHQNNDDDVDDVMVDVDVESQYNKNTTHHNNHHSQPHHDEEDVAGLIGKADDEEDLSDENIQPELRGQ
# Experiment: PBM E-score (8-mer binding enrichment) (E-score (-0.5 to 0.5)); higher = stronger / more preferred TF binding
# Settings: protein concentration: 200 nM; construct: GST-full length
# Outline: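 Universal all-10-mer Agilent arrays, fresh or stripped once, were converted to double-stranded form by primer extension. GST-tagged yeast transcription factors from PURExpress in vitro transcription/translation, full-length or DNA-binding domain only, were applied at about 100-200 nM and detected with fluorescent anti-GST. After masliner normalisation, the Universal PBM Analysis Suite scored each ungapped eight-base word together with its reverse complement by E-score.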
row,Sequence,PBM E-score
1,CTTCTGAA,0.0735
2,ATGCACCC,-0.0372
3,ACATGGAC,0.0355
4,AGCCCACA,-0.0569
5,CGGCATTC,0.00161
6,GGACAAAA,-0.0523
7,GGGGTATA,-0.146
8,CACTCGAC,0.104
9,CTGGGAAG,-0.176
10,AAAGGGCC,-0.198
11,CAAATGTC,0.103
12,TCATTTCA,0.188
13,CTGAGAAC,0.0128
14,ATTGGCGC,-0.269
15,CGGATCTA,0.0817
16,CTCTTACA,0.0135
17,CGGAGCAA,-0.226
18,ATGTAAAC,0.0851
19,ACACGCCA,-0.0721
20,ACTCCCGC,-0.0985
21,AAAGGACT,-0.284
22,GCCCGCAA,-0.165
23,GTTCGCCA,-0.0997
24,ATCATCAT,0.376
25,GAATAGGA,-0.00776

row,Sequence,PBM E-score
1,CATCAAAA,0.0592
2,AAACTAAG,0.207
3,ACAGATAT,0.177
4,ACGTTTCG,0.0198
5,AGCTGTCC,-0.213
6,ACTAAAAC,0.0409
7,TACGAAAA,0.297
8,CGTCACCA,0.258
9,AAACCTGC,-0.168
10,CCCCGACC,-0.261
11,CGGCAACA,-0.122
12,AATAATGC,0.146
13,GGGTGTCA,0.0147
14,TACGCCTA,0.0743
15,AGAGTTTG,-0.101
16,TAGAGCGA,0.121
17,AGCCCAAC,-0.0367
18,CGTCGCAG,0.176
19,ATCGACTC,-0.136
20,AGTCATCA,0.135
21,CAATGATG,0.106
22,CCCGGTGA,0.00135
23,ACGTAACC,-0.0289
24,GGATGGTA,-0.0893
25,GGACATTA,0.146

row,Sequence,PBM E-score
1,CATCTTGA,-0.173
2,ACTGACCG,-0.151
3,AACGCATT,-0.0746
4,GGAGATAC,-0.127
5,CTTCCCGA,0.0924
6,CGTGACAA,0.375
7,GGGACGAA,0.0455
8,CAGGGCGA,-0.0668
9,ATCTTGAG,-0.0537
10,CCCCTCCC,-0.41
11,ATGGCCCA,-0.127
12,TAAAAGTA,0.0929
13,AATCAAGA,-0.0686
14,ATGATTAG,0.114
15,ATAGGACG,0.119
16,AGCCACCT,-0.125
17,GGCTACCA,0.00728
18,GATTTCAA,-0.0594
19,TGATAAAA,0.337
20,GCCGTGAC,0.291
21,GCATGCGA,-0.0923
22,GGTTCTGA,-0.0844
23,CGTTACGA,0.231
24,GCCGCCTA,-0.309
25,CGTGGGGC,0.114

row,Sequence,PBM E-score
1,AAGCTAAT,0.0491
2,AGTTATCG,0.223
3,CTGTGTAC,0.14
4,ACCAACAT,0.0929
5,CTATCGAG,0.0966
6,CCGTACTC,0.0951
7,GGTCACCA,0.109
8,CCAGCGAA,-0.164
9,CAGATCCA,0.0629
10,CAGGTGAA,0.0114
11,CCAAAACC,-0.175
12,ACTGTCTG,-0.193
13,AAATAGTA,0.144
14,GTCAACAA,0.0839
15,AGCCAGCC,-0.358
16,CCCGAAAA,-0.0085
17,AGTGTGCC,-0.0277
18,CGGGGGTA,-0.243
19,GCCTGCCA,-0.381
20,CATGTACC,-0.013
21,AGGCTAAT,0.012
22,CACGCTTA,0.122
23,AATGCTGT,0.139
24,ACTGTAAA,0.107
25,AAACCAAA,0.0965

row,Sequence,PBM E-score
1,CATAAGAC,-0.116
2,ATGGGTAG,-0.0145
3,TGACCGAA,0.0507
4,GGCAGTAA,0.0511
5,GCAGCACA,0.025
6,ACCCGGAG,-0.0473
7,GCCGACAC,-0.142
8,GAGGATTA,-0.146
9,CTTCGATA,0.103
10,GAACTTGC,-0.181
11,GGTCAACC,-0.158
12,CCTCAGCC,-0.0588
13,AGATTACA,0.21
14,GCTAAACC,-0.00114
15,AGCTTTAA,0.118
16,GAATCGTA,0.211
17,GAGAGCAA,-0.101
18,GTTCGCGA,0.218
19,ACTAAGAC,0.0657
20,ACCGAGAC,-0.0366
21,AGTTATAC,0.0981
22,CTGTCCCA,-0.205
23,CTCGTCAA,0.0916
24,GAGCCGCC,-0.125
25,GCATGTCA,0.225

row,Sequence,PBM E-score
1,CCCTCCGG,-0.337
2,GGCCGAAC,-0.174
3,GCTTCAAC,-0.128
4,CGTCGAAA,0.193
5,GAGGTGAA,0.0188
6,CCAAAGAG,0.0455
7,TCGTATAA,0.4
8,AAATAACC,-0.0242
9,AATTTTGG,-0.129
10,ATACGCCA,0.0294
11,CACGCCCA,-0.0648
12,CGGCGGGA,-0.177
13,AAGGAATA,0.0414
14,AGAGGAGG,-0.199
15,CAACCGTG,0.0898
16,CCCACATC,-0.153
17,ACGAGTAC,0.188
18,CTAGCTTC,0.0299
19,AACATTTG,-0.0039
20,ACATCTCT,0.00147
21,AAAACGCG,0.0522
22,GGCAAAAA,0.145
23,AGTCGTCA,0.207
24,CCCTACAA,-0.11
25,GGAGGGTA,-0.0628

row,Sequence,PBM E-score
1,ACCACCTC,-0.0599
2,TGGCCAAA,-0.0854
3,GATTCGCC,-0.0445
4,CAGTTTCC,-0.0898
5,GATCGTAC,0.151
6,AAGGTCCG,-0.00447
7,CGCCAGTA,-0.135
8,CAACCTCG,0.0527
9,CGAATACG,0.189
10,ACCGGAGC,-0.123
11,CGGCATCC,-0.0216
12,AAGCAGGT,-0.119
13,ACGCCACA,0.0362
14,ACCTCCCT,-0.208
15,CTTCCCTC,-0.197
16,CTGTAAAC,-0.153
17,TAGAGGGA,-0.142
18,CGTATACC,0.036
19,AGTAAGTC,-0.15
20,CCAATCTA,-0.114
21,AATCCCGC,-0.0179
22,TACCAACA,-0.0455

# A stretch taken from the entries so far:
row,Sequence,PBM E-score
8,CCAGCGAA,-0.164
9,CAGATCCA,0.0629
10,CAGGTGAA,0.0114
11,CCAAAACC,-0.175
12,ACTGTCTG,-0.193
13,AAATAGTA,0.144
14,GTCAACAA,0.0839
15,AGCCAGCC,-0.358
16,CCCGAAAA,-0.0085
17,AGTGTGCC,-0.0277
18,CGGGGGTA,-0.243
19,GCCTGCCA,-0.381
20,CATGTACC,-0.013
21,AGGCTAAT,0.012
22,CACGCTTA,0.122
23,AATGCTGT,0.139
24,ACTGTAAA,0.107
25,AAACCAAA,0.0965
1,CATAAGAC,-0.116
2,ATGGGTAG,-0.0145
3,TGACCGAA,0.0507
4,GGCAGTAA,0.0511
5,GCAGCACA,0.025
6,ACCCGGAG,-0.0473
7,GCCGACAC,-0.142
8,GAGGATTA,-0.146
9,CTTCGATA,0.103
10,GAACTTGC,-0.181
11,GGTCAACC,-0.158
12,CCTCAGCC,-0.0588
13,AGATTACA,0.21
14,GCTAAACC,-0.00114
15,AGCTTTAA,0.118
